Data as given in PubChem BioAssay AID1224830 (NIAID, 2016).

- Purpose: 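Regulators of TLR4 signalling towards TNF-alpha in macrophage-like cells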 (primary screen)
- Cell system: human THP-1 monocytic leukaemia cells, TNF dual-luciferase reporter clone, PMA-differentiated to macrophage-like cells
- Reagent: siRNA pool against human genes, 50 nM
- Time to read-out: LPS for 4 h, given about 3 days after siRNA transfection
- Challenge: bacterial LPS (TLR4 ligand), 10 ng/ml
- Measurement: 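Ratio of firefly to renilla light, scaled to the plate median and expressed as a robust z-score per replicate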
- Direction: TNF reporter robust z-score: higher = stronger TNF reporter response to LPS
- Rule for the call: 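a well is active when its z-score exceeds 2.8 or falls below -1.5; control wells carry no call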
Shown is an unselected part of about 18,000 reagents. In the full data, about 2,900 (16%) got an active call. 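Calls are made per well; low scores hint the gene aids the LPS response, high scores that it dampens it.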 Repeated entries: four replicate wells of each siRNA pool.

What did the screen give for TGFA?
TNF reporter robust z-score: 0.28; Outcome: inactive

With TGFA, how do the results read?
TNF reporter robust z-score: 0.22; Outcome: inactive

With TGFA, what was measured?
TNF reporter robust z-score: 0.13; Outcome: inactive

For TGFA, how do the results read?
TNF reporter robust z-score: 0.07; Outcome: inactive

With TBC1D9, what was measured?
TNF reporter robust z-score: 0.13; Outcome: inactive

What is on record for TBC1D9?
TNF reporter robust z-score: 0.04; Outcome: inactive

What is on record for TBC1D9?
TNF reporter robust z-score: -0.81; Outcome: inactive

With TBC1D9, what was measured?
TNF reporter robust z-score: -0.04; Outcome: inactive

Which result is listed for AK5?
TNF reporter robust z-score: -0.61; Outcome: inactive

How did the screen score AK5?
TNF reporter robust z-score: 1.91; Outcome: inactive

How did the screen score AK5?
TNF reporter robust z-score: 2.46; Outcome: inactive

With AK5, what was measured?
TNF reporter robust z-score: 1.27; Outcome: inactive

Laid out differently: entries from further up
gene symbol,TNF reporter robust z-score,Outcome
TGFA,0.13,inactive
TGFA,0.07,inactive

Next results follow:
For MAGI2, what does the deposit list?
TNF reporter robust z-score: -0.13; Outcome: inactive

For MAGI2, what was measured?
TNF reporter robust z-score: 0.28; Outcome: inactive

For MAGI2, how do the results read?
TNF reporter robust z-score: -0.39; Outcome: inactive

For MAGI2, what was measured?
TNF reporter robust z-score: 0.32; Outcome: inactive

With ATP6V0C, what was measured?
TNF reporter robust z-score: -0.35; Outcome: inactive

For ATP6V0C, what was measured?
TNF reporter robust z-score: -0.4; Outcome: inactive

How did the screen score ATP6V0C?
TNF reporter robust z-score: -0.15; Outcome: inactive

For ATP6V0C, how do the results read?
TNF reporter robust z-score: -0.1; Outcome: inactive
